# Measurements: publication PMC8384837
# Where a chain is given by its changes, count along the chain named. This is one part of the list. For some of these results: At the low end of the ranking the order means little.
# What was measured:
# Conditions in all cases: yeast three-hybrid, YBZ-1, SC-Leu-His + 0.5 mM 3-AT, 4 days
# [1] = target: T1, PUM1 PUF domain R7-LTC S1079L + N1080T + E1083C (UniProt Q14671)
# T1 sequence: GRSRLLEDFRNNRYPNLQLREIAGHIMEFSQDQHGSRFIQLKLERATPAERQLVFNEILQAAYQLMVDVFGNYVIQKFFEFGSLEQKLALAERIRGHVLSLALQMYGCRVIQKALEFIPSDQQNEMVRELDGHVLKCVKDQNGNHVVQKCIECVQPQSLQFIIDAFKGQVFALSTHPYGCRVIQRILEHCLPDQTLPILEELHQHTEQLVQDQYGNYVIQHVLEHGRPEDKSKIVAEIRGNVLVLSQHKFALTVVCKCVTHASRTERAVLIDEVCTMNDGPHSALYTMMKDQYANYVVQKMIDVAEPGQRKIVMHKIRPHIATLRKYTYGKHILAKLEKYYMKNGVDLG
# [2] = target: T2, PUM1 PUF domain R7-LTL S1079L + N1080T + E1083L (UniProt Q14671)
# T2 sequence: T1 sequence with C256L
# [3] = target: T3, PUM1 PUF domain R7-LTV S1079L + N1080T + E1083V (UniProt Q14671)
# T3 sequence: T1 sequence with C256V
# [4] = target: T4, PUM1 PUF domain R7-LYW S1079L + N1080Y + E1083W (UniProt Q14671)
# T4 sequence: T1 sequence with T253Y, C256W
# [5] = target: T5, PUM1 PUF domain R7-MSG S1079M + N1080S + E1083G (UniProt Q14671)
# T5 sequence: T1 sequence with L252M, T253S, C256G
# [6] = target: T6, PUM1 PUF domain R7-MSR S1079M + N1080S + E1083R (Homo sapiens) (UniProt Q14671)
# T6 sequence: T1 sequence with L252M, T253S, C256R
# [7] = target: T7, PUM1 PUF domain R7-QGG S1079Q + N1080G + E1083G (UniProt Q14671)
# T7 sequence: T1 sequence with L252Q, T253G, C256G
# [8] = target: T8, PUM1 PUF domain R7-QGR S1079Q + N1080G + E1083R (Homo sapiens) (UniProt Q14671)
# T8 sequence: T1 sequence with L252Q, T253G, C256R
# [9] = target: T9, PUM1 PUF domain R7-QPG S1079Q + N1080P + E1083G (Homo sapiens) (UniProt Q14671)
# T9 sequence: T1 sequence with L252Q, T253P, C256G
# [10] = target: T10, PUM1 PUF domain R7-QSG S1079Q + N1080S + E1083G (Homo sapiens) (UniProt Q14671)
# T10 sequence: T1 sequence with L252Q, T253S, C256G
# [11] = target: T11, PUM1 PUF domain R7-QSN S1079Q + N1080S + E1083N (Homo sapiens) (UniProt Q14671)
# T11 sequence: T1 sequence with L252Q, T253S, C256N
# [12] = target: T12, PUM1 PUF domain R7-QSR S1079Q + N1080S + E1083R (Homo sapiens) (UniProt Q14671)
# T12 sequence: T1 sequence with L252Q, T253S, C256R
# [13] = target: T13, PUM1 PUF domain R7-QTR S1079Q + N1080T + E1083R (Homo sapiens) (UniProt Q14671)
# T13 sequence: T1 sequence with L252Q, C256R
# [14] = target: T14, PUM1 PUF domain R7-RAS S1079R + N1080A + E1083S (Homo sapiens) (UniProt Q14671)
# T14 sequence: T1 sequence with L252R, T253A, C256S
# [15] = target: T15, PUM1 PUF domain R7-RCG S1079R + N1080C + E1083G (Homo sapiens) (UniProt Q14671)
# T15 sequence: T1 sequence with L252R, T253C, C256G
# [16] = target: T16, PUM1 PUF domain R7-RER S1079R + N1080E + E1083R (Homo sapiens) (UniProt Q14671)
# T16 sequence: T1 sequence with L252R, T253E, C256R
# [17] = target: T17, PUM1 PUF domain R7-RGF S1079R + N1080G + E1083F (Homo sapiens) (UniProt Q14671)
# T17 sequence: T1 sequence with L252R, T253G, C256F
# [18] = target: T18, PUM1 PUF domain R7-RGW S1079R + N1080G + E1083W (Homo sapiens) (UniProt Q14671)
# T18 sequence: T1 sequence with L252R, T253G, C256W
# [19] = target: T19, PUM1 PUF domain R7-RGY S1079R + N1080G + E1083Y (Homo sapiens) (UniProt Q14671)
# T19 sequence: T1 sequence with L252R, T253G, C256Y
# [20] = target: T20, PUM1 PUF domain R7-RIL S1079R + N1080I + E1083L (Homo sapiens) (UniProt Q14671)
# T20 sequence: T1 sequence with L252R, T253I, C256L
# [21] = target: T21, PUM1 PUF domain R7-RIQ S1079R + N1080I + E1083Q (Homo sapiens) (UniProt Q14671)
# T21 sequence: T1 sequence with L252R, T253I, C256Q
# [22] = target: T22, PUM1 PUF domain R7-RIR S1079R + N1080I + E1083R (Homo sapiens) (UniProt Q14671)
# T22 sequence: T1 sequence with L252R, T253I, C256R
# [23] = target: T23, PUM1 PUF domain R7-RKR S1079R + N1080K + E1083R (Homo sapiens) (UniProt Q14671)
# T23 sequence: T1 sequence with L252R, T253K, C256R
# [24] = target: T24, PUM1 PUF domain R7-RML S1079R + N1080M + E1083L (Homo sapiens) (UniProt Q14671)
# T24 sequence: T1 sequence with L252R, T253M, C256L
# [25] = target: T25, PUM1 PUF domain R7-RPE S1079R + N1080P (Homo sapiens) (UniProt Q14671)
# T25 sequence: T1 sequence with L252R, T253P, C256E
sequence,measurement,setting,value
GGCUAGAACUAGUGGAUCCCCCGGCGCCCGGCGGCUCGAGCCCGGGUAAGUCUAAAUAGUCUGCAUGCCGCCGGGCGCCAUGCCUGCAGGUCGACUCUAGAAAACAUG,binding signal (log2 enrichment (interaction score)),[1],< -10.3
same,binding signal (log2 enrichment (interaction score)),[2],< -7.91
same,binding signal (log2 enrichment (interaction score)),[3],< -8.74
same,binding signal (log2 enrichment (interaction score)),[4],< -7.15
same,binding signal (log2 enrichment (interaction score)),[5],< -8.43
same,binding signal (log2 enrichment (interaction score)),[6],-2.45
same,binding signal (log2 enrichment (interaction score)),[7],< -8.21
same,binding signal (log2 enrichment (interaction score)),[8],-1.57
same,binding signal (log2 enrichment (interaction score)),[9],-0.98
same,binding signal (log2 enrichment (interaction score)),[10],-4
same,binding signal (log2 enrichment (interaction score)),[11],-2.05
same,binding signal (log2 enrichment (interaction score)),[12],0.29
same,binding signal (log2 enrichment (interaction score)),[13],-1.67
same,binding signal (log2 enrichment (interaction score)),[14],-1.58
same,binding signal (log2 enrichment (interaction score)),[15],0.09
same,binding signal (log2 enrichment (interaction score)),[16],-0.02
same,binding signal (log2 enrichment (interaction score)),[17],-1.62
same,binding signal (log2 enrichment (interaction score)),[18],-0.46
same,binding signal (log2 enrichment (interaction score)),[19],-0.28
same,binding signal (log2 enrichment (interaction score)),[20],-1.8
same,binding signal (log2 enrichment (interaction score)),[21],-0.03
same,binding signal (log2 enrichment (interaction score)),[22],-0.96
same,binding signal (log2 enrichment (interaction score)),[23],0.66
same,binding signal (log2 enrichment (interaction score)),[24],-2.8
same,binding signal (log2 enrichment (interaction score)),[25],-0.65

# Some of the entries so far, with tabs:
sequence	measurement	setting	value
GGCUAGAACUAGUGGAUCCCCCGGCGCCCGGCGGCUCGAGCCCGGGUAAGUCUAAAUAGUCUGCAUGCCGCCGGGCGCCAUGCCUGCAGGUCGACUCUAGAAAACAUG	binding signal (log2 enrichment (interaction score))	[24]	-2.8
same	binding signal (log2 enrichment (interaction score))	[25]	-0.65
